No constants are given. Whether binding was seen depends on the method and setting.
Experiments:
[1] = target: Ctpom152^186-1270 (Chaetomium thermophilum) (UniProt G0SB44); experiment: SEC-MALS; Ctpom152^186-1270 injected at 6, 4 and 2 mg/mL per injection; both purified
[2] = target: Ctpom152^194-1256 (chymotryptic fragment) (Chaetomium thermophilum) (UniProt G0SB44); experiment: negative-stain EM; purified detergent-free fragment, uranyl acetate stain; both purified

B1: Ctpom152^186-1270 (domain or fragment, UniProt G0SB44 186-1270)
chain: MGRQIINILPEGSAILNPELQPFCLGGDRKTANIPIFFNSTIPVEVELIRTDFETGQQESIKLSKSQLRDIERRAKRESQDGDTVQSIVQFDFPVKKTGAYRLGRVLDEYKLEVQRRNPLTFVVSCPKAWVGPALSAHRCVGDLSDLSMMVEGTPPLKIKYSRMINGKDHSFHFQSLQPEGFVSPLSGLRSNNWGYDEDDISWARAQKVPVGLNESMHSSGDWQYSIDEVQDGFGNIIKYDSLADDPDGKPKPKHLTQSFVVKKRPVIRLEGCDLRHPLKVAKGKSKNLPVSYGLSGGSREDSTYQIAWQFSPIDTLTESGDHGDVVTIGTYTAKNNRDRPTISAPGLYTLKSVSASQCEGEIQEPSSCLLLNPLEPRLSLRHEEIPDTCAGNSIGLRVDLDLIGTPPFIVRYDVISNGERRSERVSIPGLRYQLDLVPRIAGHHKYIFTHVGDSIYDGQKLSGPEYVLEQDVKPAAAALIQHSTGKMSSCLGDQVTVDILLLGDPPFTLEWELIHDGKRKQFKVPNIQENSYQIKTAPLTTGGEYTLGLTSVQDKRGCRNFLQEELKISVRRQSPRAAFGQVDGKRKILAVEGSSVKLPLRLTGEGPWKVYYANLHDGSPDKPKVQEKIIKSDNGFLEVRGRGAFAITDVWDSQCHGVVDPKASRFDVDWFPRPELSVALTHGVSKTETGFQLQDVCEGDVSGFEVALKGTPPFTVEYEVRHHPLQGSSSLSKKKIEGVVGKEAIQADTSKAGTYTYKFTALEDDLYSSNRGFQPIIVKQNVNRKPTASFVKPGQTFKYCKSEQDNEDGIPITLTGVPPFFLEVEIKHQSAAVPEIYRTPAIDSHSYELKIPRHHLRLGTQHIRIRDIRDGSGCHSTSGILSGPSVQVQLFEAPTIYPLETRTDYCVGERISYTLSGQAPFEVWYTFNGVELKAKSPNTNFRRIAESPGEFTITSVSDKASECRAPVSITKTIHPLPAVRISKGKSVRVDIHEGGEVDILFEFFGTPPFEFTYTRSTNARKGQKSQVLETRHDISHEHSKVIKASQEGTYEVVAIKDKYCSFSTQAVVGLEGGKKDKTKKLKVY
[1]
  binding: no binding (tested: 6 mg/mL per injection)

B2: Ctpom152^194-1256 (chymotryptic fragment) (domain or fragment, UniProt G0SB44 194-1256)
chain: LPEGSAILNPELQPFCLGGDRKTANIPIFFNSTIPVEVELIRTDFETGQQESIKLSKSQLRDIERRAKRESQDGDTVQSIVQFDFPVKKTGAYRLGRVLDEYKLEVQRRNPLTFVVSCPKAWVGPALSAHRCVGDLSDLSMMVEGTPPLKIKYSRMINGKDHSFHFQSLQPEGFVSPLSGLRSNNWGYDEDDISWARAQKVPVGLNESMHSSGDWQYSIDEVQDGFGNIIKYDSLADDPDGKPKPKHLTQSFVVKKRPVIRLEGCDLRHPLKVAKGKSKNLPVSYGLSGGSREDSTYQIAWQFSPIDTLTESGDHGDVVTIGTYTAKNNRDRPTISAPGLYTLKSVSASQCEGEIQEPSSCLLLNPLEPRLSLRHEEIPDTCAGNSIGLRVDLDLIGTPPFIVRYDVISNGERRSERVSIPGLRYQLDLVPRIAGHHKYIFTHVGDSIYDGQKLSGPEYVLEQDVKPAAAALIQHSTGKMSSCLGDQVTVDILLLGDPPFTLEWELIHDGKRKQFKVPNIQENSYQIKTAPLTTGGEYTLGLTSVQDKRGCRNFLQEELKISVRRQSPRAAFGQVDGKRKILAVEGSSVKLPLRLTGEGPWKVYYANLHDGSPDKPKVQEKIIKSDNGFLEVRGRGAFAITDVWDSQCHGVVDPKASRFDVDWFPRPELSVALTHGVSKTETGFQLQDVCEGDVSGFEVALKGTPPFTVEYEVRHHPLQGSSSLSKKKIEGVVGKEAIQADTSKAGTYTYKFTALEDDLYSSNRGFQPIIVKQNVNRKPTASFVKPGQTFKYCKSEQDNEDGIPITLTGVPPFFLEVEIKHQSAAVPEIYRTPAIDSHSYELKIPRHHLRLGTQHIRIRDIRDGSGCHSTSGILSGPSVQVQLFEAPTIYPLETRTDYCVGERISYTLSGQAPFEVWYTFNGVELKAKSPNTNFRRIAESPGEFTITSVSDKASECRAPVSITKTIHPLPAVRISKGKSVRVDIHEGGEVDILFEFFGTPPFEFTYTRSTNARKGQKSQVLETRHDISHEHSKVIKASQEGTYEVVAIKDKYCSFSTQAVVGL
[2]
  binding: no binding

From PMC6141588, “Electron microscopy of Chaetomium pom152 shows the assembly of ten-bead string” (Cell Discovery, 2018)
